The source of these data is paper PMC5738371.

Sequences of proteins named here, by UniProt entry; tags and fusion partners are left off.
UniProt P14713: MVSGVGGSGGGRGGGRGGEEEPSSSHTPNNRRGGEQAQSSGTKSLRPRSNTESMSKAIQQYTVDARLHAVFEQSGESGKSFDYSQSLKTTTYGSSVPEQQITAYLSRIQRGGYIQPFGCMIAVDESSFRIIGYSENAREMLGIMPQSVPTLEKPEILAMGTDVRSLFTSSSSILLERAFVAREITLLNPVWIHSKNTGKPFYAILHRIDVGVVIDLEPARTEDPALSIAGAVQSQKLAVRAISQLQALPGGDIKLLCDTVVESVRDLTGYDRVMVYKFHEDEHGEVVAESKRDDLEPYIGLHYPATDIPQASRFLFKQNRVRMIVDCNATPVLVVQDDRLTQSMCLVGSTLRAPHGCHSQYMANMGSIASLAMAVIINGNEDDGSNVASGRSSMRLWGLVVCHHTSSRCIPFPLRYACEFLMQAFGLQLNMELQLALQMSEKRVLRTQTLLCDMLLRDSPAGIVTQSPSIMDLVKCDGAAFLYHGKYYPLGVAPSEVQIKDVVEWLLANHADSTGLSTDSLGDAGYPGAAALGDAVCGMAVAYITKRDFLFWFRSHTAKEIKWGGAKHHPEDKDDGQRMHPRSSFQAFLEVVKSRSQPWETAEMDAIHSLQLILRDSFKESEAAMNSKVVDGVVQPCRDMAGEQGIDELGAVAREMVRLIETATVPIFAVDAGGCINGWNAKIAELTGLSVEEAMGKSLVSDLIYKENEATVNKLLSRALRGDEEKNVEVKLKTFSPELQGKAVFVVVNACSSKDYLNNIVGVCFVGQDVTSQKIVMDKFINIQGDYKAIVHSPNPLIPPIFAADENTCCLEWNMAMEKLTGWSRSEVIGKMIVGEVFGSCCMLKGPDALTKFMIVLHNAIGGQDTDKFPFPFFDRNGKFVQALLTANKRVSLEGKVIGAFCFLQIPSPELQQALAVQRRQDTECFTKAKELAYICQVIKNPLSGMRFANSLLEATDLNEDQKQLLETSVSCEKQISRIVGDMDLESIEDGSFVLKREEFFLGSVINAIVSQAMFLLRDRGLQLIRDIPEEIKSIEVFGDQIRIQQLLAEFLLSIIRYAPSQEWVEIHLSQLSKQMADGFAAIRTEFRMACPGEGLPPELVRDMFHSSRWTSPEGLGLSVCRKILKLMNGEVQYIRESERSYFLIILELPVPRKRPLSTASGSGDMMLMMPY

These are yes or no findings as the source states them, for the method shown. For some of these results: In cells and extracts the contact can be indirect. Some binding calls cover weakened binding; strength is not graded here. For some of these results: Sequences can lack the tags named with a protein.

Assay [1] concerns the target T1, HA-YFP-PCHL (Arabidopsis thaliana) (UniProt O65680).
T1 sequence: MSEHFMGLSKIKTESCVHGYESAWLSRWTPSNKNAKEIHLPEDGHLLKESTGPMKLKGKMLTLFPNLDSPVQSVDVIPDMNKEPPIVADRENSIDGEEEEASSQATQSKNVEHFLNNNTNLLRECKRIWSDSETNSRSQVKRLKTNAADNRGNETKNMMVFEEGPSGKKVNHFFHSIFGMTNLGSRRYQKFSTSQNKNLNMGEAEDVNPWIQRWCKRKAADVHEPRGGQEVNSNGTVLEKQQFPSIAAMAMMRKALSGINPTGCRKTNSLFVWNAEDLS
The experiment in a line: co-IP; HA-YFP-PCH1 or HA-YFP-PCHL precipitated with α-GFP antibody on Dynabeads from native extracts of 4-day-old dark-grown seedlings (10 min red light or darkness); endogenous phyB detected with α-phyB; IP buffer 50 mM Tris/HCl pH 7.5, 150 mM NaCl, 0.1% NP-40; preference for phyB Pfr.

The target in assay [2] is T2, GAL4-DNA-binding domain fusion of PCHL (Arabidopsis thaliana) (UniProt O65680).
T2 sequence: T1 sequence
The experiment in a line: two-hybrid; phyB-AD co-expressed with BD-PCH1 or BD-PCHL in yeast; media with 20 µM phycocyanobilin; X-Gal filter lift after 48 h at 26 °C in darkness, red or far-red light, and ONPG assay after 10 min red or far-red light; a weak preference for Pfr.

Assay [3] concerns the target phyB expressed in HEK293T cells (Arabidopsis thaliana) (UniProt P14713). The experiment in a line: co-IP; lysates of transfected HEK293T cells given 15 µM phycocyanobilin; anti-GFP microbeads, 2 h at 4 °C protected from light; blots with α-GFP and α-c-Myc (Supplementary Fig. 1c, d).
The target of assay [4] is phyB-GFP (Arabidopsis thaliana) (UniProt P14713). Nature of the assay: co-IP; extracts of seedlings expressing phyB-GFP with c-Myc-mCherry-PCH1 or c-Myc-mCherry-PCHL; IP with α-GFP antibody on Dynabeads, blots with α-c-Myc and α-GFP; IP buffer 50 mM Tris/HCl pH 7.5, 150 mM NaCl, 0.1% NP-40 (Supplementary Fig. 1b).

With “endogenous phyB (from UniProt P14713 1-1172) (receptor)”, the binding result in assay [1] was “binds”. Regarding “phyB-GAL4-activation domain fusion (from UniProt P14713 1-1172) (receptor)”, the binding entry in assay [2] was “binds”.

B1: PCHL expressed in HEK293T cells (protein, UniProt O65680 1-279)
chain: T1 sequence
Take B1: the binding result in assay [3] was “binds”.

B2: c-Myc-mCherry-PCHL (protein, UniProt O65680 1-279)
chain: T1 sequence
Consider B2, for which the binding entry in assay [4] is recorded as “binds”.
